Measured values from paper PMC3004790.
Where a chain is given by its changes, count along the chain named. These are yes or no findings as the source states them, for the method shown. Binding seen in cells or lysates may run through a third protein. Some results given as binding are weak or reduced against the parent protein; the word gives no strength. Tags and fused reporters may be left off the sequences shown.

Chains of the proteins cited; added tags and fusions are not shown.
UniProt O00482: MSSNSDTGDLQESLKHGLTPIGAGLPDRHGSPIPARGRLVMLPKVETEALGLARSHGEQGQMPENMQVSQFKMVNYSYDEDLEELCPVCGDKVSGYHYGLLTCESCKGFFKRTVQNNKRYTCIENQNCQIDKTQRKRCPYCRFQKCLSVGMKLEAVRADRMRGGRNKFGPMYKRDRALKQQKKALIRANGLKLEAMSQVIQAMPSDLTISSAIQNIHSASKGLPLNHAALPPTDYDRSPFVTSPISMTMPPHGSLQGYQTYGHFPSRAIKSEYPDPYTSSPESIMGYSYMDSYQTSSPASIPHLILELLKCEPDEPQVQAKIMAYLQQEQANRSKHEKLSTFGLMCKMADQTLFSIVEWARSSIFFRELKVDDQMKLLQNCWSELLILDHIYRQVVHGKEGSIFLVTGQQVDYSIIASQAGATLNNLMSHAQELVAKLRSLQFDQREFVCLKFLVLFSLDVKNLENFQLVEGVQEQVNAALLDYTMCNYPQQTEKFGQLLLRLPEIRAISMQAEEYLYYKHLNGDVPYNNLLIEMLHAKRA
UniProt Q13285: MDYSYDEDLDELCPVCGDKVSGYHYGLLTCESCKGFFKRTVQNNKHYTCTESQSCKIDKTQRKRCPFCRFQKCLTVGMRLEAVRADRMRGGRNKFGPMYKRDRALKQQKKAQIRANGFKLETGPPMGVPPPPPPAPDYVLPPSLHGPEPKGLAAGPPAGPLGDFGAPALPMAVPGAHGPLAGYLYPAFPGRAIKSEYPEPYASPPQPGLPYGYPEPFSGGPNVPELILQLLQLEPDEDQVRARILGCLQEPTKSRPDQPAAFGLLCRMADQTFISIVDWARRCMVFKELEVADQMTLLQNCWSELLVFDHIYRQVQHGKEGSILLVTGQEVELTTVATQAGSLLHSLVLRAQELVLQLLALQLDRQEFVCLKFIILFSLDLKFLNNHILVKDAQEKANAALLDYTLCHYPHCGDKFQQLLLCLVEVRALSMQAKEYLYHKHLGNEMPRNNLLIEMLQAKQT

Columns and labels:
[1] = target: T1, FLAG-tagged FOXL2:C134W (human) (UniProt P58012); assay: co-IP; COV434 cells 24hr after co-transfection; lysis buffer with 1% Igepal CA-630; FLAG-tagged FOXL2 precipitated with Anti-FLAG M2 Affinity Gel, beads washed three times with 20 volumes of lysis buffer; blots for SF-1 (anti-serum) and LRH-1 (ab18293); SF-1 and LRH-1 expressed alone or combined
T1 sequence: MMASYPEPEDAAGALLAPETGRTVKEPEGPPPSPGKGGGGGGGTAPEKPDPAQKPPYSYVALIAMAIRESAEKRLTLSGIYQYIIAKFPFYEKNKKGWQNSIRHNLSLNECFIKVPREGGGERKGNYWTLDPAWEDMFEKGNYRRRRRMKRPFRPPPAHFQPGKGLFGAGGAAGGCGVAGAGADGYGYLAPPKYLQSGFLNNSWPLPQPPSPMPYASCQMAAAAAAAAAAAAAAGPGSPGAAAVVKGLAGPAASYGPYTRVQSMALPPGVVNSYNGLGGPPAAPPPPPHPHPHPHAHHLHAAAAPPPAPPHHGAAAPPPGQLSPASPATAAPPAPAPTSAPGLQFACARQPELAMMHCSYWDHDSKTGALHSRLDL

[2] = target: T2, FLAG-tagged FOXL2:wt (human) (UniProt P58012); assay: as above
T2 sequence: T1 sequence with W134C

binding [1] | binding [2] | Substance
binds | binds | liver receptor homologue 1 (LRH-1) (from UniProt O00482 1-541)
binds | binds | steroidogenic factor 1 (SF-1) (from UniProt Q13285 1-461)
